No constants are given. Whether binding was seen depends on the method and setting. Binding seen in cells or lysates may run through a third protein. Some entries that bind do so weakly or less than the wild type.
Columns and labels:
[1] = target: flag-labeled PARK2 (E3 ubiquitin ligase) (UniProt O60260); test: co-IP; Pierce Co-Immunoprecipitation Kit; lysate of A549-DDP cells transfected with a flag-labeled plasmid (CCND3 or PARK2); anti-flag antibody; irrelevant IgG as negative control; Western blot
[2] = target: flag-labeled CCND3 (cyclin D3) (UniProt P30281); test: as above

Protein sequences, listed by entry. Tags and fused reporters are not part of them. Lines headed by an entry give the natural chain unless they say otherwise; changes in a name come on top.
UniProt O60260: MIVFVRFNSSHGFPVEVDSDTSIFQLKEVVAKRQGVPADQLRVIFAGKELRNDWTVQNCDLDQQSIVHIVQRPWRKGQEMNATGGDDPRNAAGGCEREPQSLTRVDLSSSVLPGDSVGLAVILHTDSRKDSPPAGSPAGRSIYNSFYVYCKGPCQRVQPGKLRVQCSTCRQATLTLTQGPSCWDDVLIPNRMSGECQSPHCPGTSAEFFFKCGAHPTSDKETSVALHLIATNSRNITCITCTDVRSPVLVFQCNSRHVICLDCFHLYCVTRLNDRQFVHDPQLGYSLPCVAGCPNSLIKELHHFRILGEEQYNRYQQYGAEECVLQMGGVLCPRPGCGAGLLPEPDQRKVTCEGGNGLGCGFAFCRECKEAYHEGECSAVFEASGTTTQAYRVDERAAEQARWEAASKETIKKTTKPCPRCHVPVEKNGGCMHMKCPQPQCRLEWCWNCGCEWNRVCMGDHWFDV
UniProt P30281: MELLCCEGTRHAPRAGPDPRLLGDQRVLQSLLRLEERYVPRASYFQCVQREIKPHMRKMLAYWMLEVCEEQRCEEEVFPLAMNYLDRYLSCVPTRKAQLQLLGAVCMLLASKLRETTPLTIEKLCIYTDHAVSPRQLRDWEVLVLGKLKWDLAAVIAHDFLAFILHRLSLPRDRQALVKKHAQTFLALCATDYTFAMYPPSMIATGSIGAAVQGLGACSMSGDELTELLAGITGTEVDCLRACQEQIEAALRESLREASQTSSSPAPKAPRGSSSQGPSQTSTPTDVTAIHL
UniProt P08670: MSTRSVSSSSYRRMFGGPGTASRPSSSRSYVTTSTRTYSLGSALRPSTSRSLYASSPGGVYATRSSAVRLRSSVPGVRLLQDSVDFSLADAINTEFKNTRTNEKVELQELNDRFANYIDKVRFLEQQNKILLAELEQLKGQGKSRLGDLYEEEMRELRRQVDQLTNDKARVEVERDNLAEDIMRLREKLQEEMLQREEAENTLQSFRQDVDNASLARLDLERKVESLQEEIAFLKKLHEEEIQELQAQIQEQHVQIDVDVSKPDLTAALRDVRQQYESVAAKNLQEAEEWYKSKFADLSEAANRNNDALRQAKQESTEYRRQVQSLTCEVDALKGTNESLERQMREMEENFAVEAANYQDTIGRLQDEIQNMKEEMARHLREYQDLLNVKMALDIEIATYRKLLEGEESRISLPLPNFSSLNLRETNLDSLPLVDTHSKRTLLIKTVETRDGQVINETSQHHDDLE

binding [1]	binding [2]	Substance
binds	–	CCND3 (cyclin D3) of A549-DDP cells (from UniProt P30281-1 1-292)
binds	binds	vimentin (from UniProt P08670 1-466)
